PubChem BioAssay AID1159584 | Peter MacCallum Cancer Centre | 2016
The whole screen tested about 18,000 reagents; below is a random part of them. The numbers tell different reagents against one gene apart. Further read-outs or replicates are left out here. No sequences are given here. Not given: the amount of reagent, the time to read-out.

- Aim: 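Genes that CDH1-null MCF10A cells selectively depend on to survive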 (primary screen)
- Cell system: human MCF10A breast epithelial cells, parental and CDH1-null
- Reagent: siRNA against human genes
- Read-out: 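ATP luminescence (CellTiter-Glo) viability per line relative to mean mock wells over all plates, and the ratio of CDH1-null to parental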
- Scale: CDH1-null / parental viability ratio: higher = CDH1-null cells survive relatively better than parental

no.	Target gene	reagent	CDH1-null / parental viability ratio
1	MXRA5 (GeneID 25878)	1	1.05
2	CCKBR (GeneID 887)	1	1.36
3	SERPINA1 (GeneID 5265)	1	1.12
4	FCGR1BP (GeneID 2210)	1	1.53
5	NOL8 (GeneID 55035)	1	1.53
6	ZFP1 (GeneID 162239)	1	1.19
7	ARHGEF17 (GeneID 9828)	1	0.89
8	PDXP (GeneID 57026)	1	1.1
9	SUGT1 (GeneID 10910)	1	1.2
10	OR2D2 (GeneID 120776)	1	0.78
11	SPRR1A (GeneID 6698)	1	0.83
12	HYPK (GeneID 25764)	1	1.03
13	RRAGA (GeneID 10670)	1	0.85
14	CDK2AP1 (GeneID 8099)	1	1.31
15	SPA17 (GeneID 53340)	1	1.17
16	PPP4R2 (GeneID 151987)	1	1.1
17	EMD (GeneID 2010)	1	0.97
18	GDPD5 (GeneID 81544)	1	2.03
19	FIBP (GeneID 9158)	1	0.94
20	SEMA4D (GeneID 10507)	1	0.9
21	SEMA4D (GeneID 10507)	2	0.86
22	SLC37A1 (GeneID 54020)	1	1
23	ACCSL (GeneID 390110)	1	0.96
24	G6PC3 (GeneID 92579)	1	1.56
25	ZBTB9 (GeneID 221504)	1	1
26	CD247 (GeneID 919)	1	1.1
27	TRIP12 (GeneID 9320)	1	1.01
28	TRIM77 (GeneID 390231)	1	0.9

Reprinted from the entries so far, 3 entries:
no.	Target gene	reagent	CDH1-null / parental viability ratio
23	ACCSL (GeneID 390110)	1	0.96
24	G6PC3 (GeneID 92579)	1	1.56
25	ZBTB9 (GeneID 221504)	1	1
